The supplement of paper PMC12542422
Where a name gives a salt, the structure may show the parent alone. ± gives the standard deviation of the averaged measurements. The list shows a part of the results. Values are raw readings; no control value is given beside them.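 HeLa cells imaged for ribosome-assembly readouts (ENP1 staining with or without export block, or inducible tagged ribosomal protein reporters); machine learning classified each cell's signal location against solvent (DMSO) controls. Hits exceeded the DMSO false-positive mean by five standard deviations, then were visually confirmed; three biological replicates.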

What was measured:
[1] = tested on: HeLa K (ENP1 immunofluorescence, +LMB); assay: fraction of cells with nucleolar or nucleolar/nucleoplasmic ENP1 signal (MainHitrate); higher = more cells with nucleolar/nuclear readout signal (for ENP1 -LMB: less RNAPI inhibition; for +LMB ENP1 and RP reporters: stronger nuclear/nucleolar retention, i.e. ribosome biogenesis defect); details: concentration: 1 µM; treatment time: 6 h; ENP1 +LMB; leptomycin B: 20 nM, last 1.5 h
[2] = tested on: HeLa K (ENP1 immunofluorescence, no LMB); assay: as above; details: concentration: 1 µM; treatment time: 6 h; ENP1 -LMB; leptomycin B: none
HeLa RPS2-YFP reporter = assay: fraction of reporter-positive cells with nuclear (nucleolar or nucleolar/nucleoplasmic) RPS2-YFP (MainHitrate); higher = more cells with nucleolar/nuclear readout signal (for ENP1 -LMB: less RNAPI inhibition; for +LMB ENP1 and RP reporters: stronger nuclear/nucleolar retention, i.e. ribosome biogenesis defect); details: concentration: 1 µM; treatment time: 6 h
HeLa RPL29-GFP reporter = assay: fraction of reporter-positive cells with nuclear (nucleolar or nucleolar/nucleoplasmic) RPL29-GFP (MainHitrate); higher = more cells with nucleolar/nuclear readout signal (for ENP1 -LMB: less RNAPI inhibition; for +LMB ENP1 and RP reporters: stronger nuclear/nucleolar retention, i.e. ribosome biogenesis defect); details: concentration: 1 µM; treatment time: 6 h

CO[C@@H]1[C@@H](OC(N)=O)[C@@H](O)[C@H](Oc2ccc3c(O)c(NC(=O)c4ccc(O)c(CC=C(C)C)c4)c(=O)oc3c2C)OC1(C)C [Novobiocin sodium (Albamycin)]
fraction [1]: 0.0961 ± 0.13
fraction [2]: 0.994 ± 0.011
fraction of reporter-positive cells with nuclear (HeLa RPS2-YFP reporter): 0.103 ± 0.091
fraction of reporter-positive cells with nuclear (HeLa RPL29-GFP reporter): 0.265 ± 0.067

Cl.N=C(N)NCCC[C@H](N)C(=O)O [L-Arginine HCl]
fraction [1]: 0.083 ± 0.1
fraction [2]: 0.987 ± 0.022
fraction of reporter-positive cells with nuclear (HeLa RPS2-YFP reporter): 0.134 ± 0.093
fraction of reporter-positive cells with nuclear (HeLa RPL29-GFP reporter): 0.21 ± 0.049

O=C(O)CSCC(=O)NC1CCSC1=O (stereo not given) [Erdosteine]
fraction [1]: 0.09 ± 0.13
fraction [2]: 0.994 ± 0.011
fraction of reporter-positive cells with nuclear (HeLa RPS2-YFP reporter): 0.0835 ± 0.057
fraction of reporter-positive cells with nuclear (HeLa RPL29-GFP reporter): 0.216 ± 0.08

O=c1[nH]cc(F)c(=O)[nH]1 [Adrucil (Fluorouracil)]
fraction [1]: 0.14 ± 0.11
fraction [2]: 0.9978 ± 0.0038
fraction of reporter-positive cells with nuclear (HeLa RPS2-YFP reporter): 0.0974 ± 0.07
fraction of reporter-positive cells with nuclear (HeLa RPL29-GFP reporter): 0.213 ± 0.063

CCCc1cc(=O)[nH]c(=S)[nH]1 [Propylthiouracil]
fraction [1]: 0.066 ± 0.072
fraction [2]: 0.9944 ± 0.0097
fraction of reporter-positive cells with nuclear (HeLa RPS2-YFP reporter): 0.109 ± 0.079
fraction of reporter-positive cells with nuclear (HeLa RPL29-GFP reporter): 0.227 ± 0.063

CCCCc1oc2ccccc2c1C(=O)c1cc(I)c(OCCN(CC)CC)c(I)c1 [Amiodarone HCl]
fraction [1]: 0.112 ± 0.16
fraction [2]: 0.991 ± 0.015
fraction of reporter-positive cells with nuclear (HeLa RPS2-YFP reporter): 0.104 ± 0.067
fraction of reporter-positive cells with nuclear (HeLa RPL29-GFP reporter): 0.235 ± 0.076

CCn1cc(C(=O)O)c(=O)c2cc(F)c(N3CCN(C)CC3)cc21 [Pefloxacin mesylate]
fraction [1]: 0.0958 ± 0.13
fraction [2]: 0.991 ± 0.016
fraction of reporter-positive cells with nuclear (HeLa RPS2-YFP reporter): 0.377 ± 0.41
fraction of reporter-positive cells with nuclear (HeLa RPL29-GFP reporter): 0.399 ± 0.31

CC(CCc1ccc(O)cc1)NCC(O)c1ccc(O)cc1 (stereo not given) [Ractopamine HCl]
fraction [1]: 0.0954 ± 0.11
fraction [2]: 0.9988 ± 0.002
fraction of reporter-positive cells with nuclear (HeLa RPS2-YFP reporter): 0.192 ± 0.21
fraction of reporter-positive cells with nuclear (HeLa RPL29-GFP reporter): 0.311 ± 0.26

O=C(OCC(O)CO)c1ccccc1Nc1ccnc2cc(Cl)ccc12 (stereo not given) [Glafenine HCl]
fraction [1]: 0.14 ± 0.15
fraction [2]: 0.9993 ± 0.0012
fraction of reporter-positive cells with nuclear (HeLa RPS2-YFP reporter): 0.195 ± 0.18
fraction of reporter-positive cells with nuclear (HeLa RPL29-GFP reporter): 0.282 ± 0.22

C[C@]12CC[C@@H]3c4ccc(O)cc4CC[C@H]3[C@@H]1CCC2=O [Estrone]
fraction [1]: 0.0414 ± 0.014
fraction [2]: 0.9977 ± 0.004
fraction of reporter-positive cells with nuclear (HeLa RPS2-YFP reporter): 0.0946 ± 0.084
fraction of reporter-positive cells with nuclear (HeLa RPL29-GFP reporter): 0.216 ± 0.039

CCCc1nc(C)c2c(=O)nc(-c3cc(S(=O)(=O)N4CCN(CC)CC4)ccc3OCC)[nH]n12 [Vardenafil (Vivanza)]
fraction [1]: 0.0772 ± 0.1
fraction [2]: 0.9959 ± 0.0071
fraction of reporter-positive cells with nuclear (HeLa RPS2-YFP reporter): 0.0553 ± 0.043
fraction of reporter-positive cells with nuclear (HeLa RPL29-GFP reporter): 0.21 ± 0.071

CC(C)[C@H](N)C(=O)OCCOCn1cnc2c(=O)nc(N)[nH]c21 [Valaciclovir HCl]
fraction [1]: 0.112 ± 0.14
fraction [2]: 0.99 ± 0.018
fraction of reporter-positive cells with nuclear (HeLa RPS2-YFP reporter): 0.122 ± 0.085
fraction of reporter-positive cells with nuclear (HeLa RPL29-GFP reporter): 0.24 ± 0.073

Cc1cccc(C)c1NC(=O)C1CCCCN1C (stereo not given) [Mepivacaine HCl]
fraction [1]: 0.105 ± 0.15
fraction [2]: 0.989 ± 0.019
fraction of reporter-positive cells with nuclear (HeLa RPS2-YFP reporter): 0.117 ± 0.092
fraction of reporter-positive cells with nuclear (HeLa RPL29-GFP reporter): 0.206 ± 0.078

O=C(O)c1ccc(-n2nc(-c3ccccc3O)nc2-c2ccccc2O)cc1 [Deferasirox (Exjade)]
fraction [1]: 0.0823 ± 0.074
fraction [2]: 0.9989 ± 0.0019
fraction of reporter-positive cells with nuclear (HeLa RPS2-YFP reporter): 0.115 ± 0.064
fraction of reporter-positive cells with nuclear (HeLa RPL29-GFP reporter): 0.218 ± 0.07

COc1cc(/C=C/C(=O)N2CCN(CC(=O)N3CCCC3)CC2)cc(OC)c1OC [Cinepazide maleate]
fraction [1]: 0.0607 ± 0.077
fraction [2]: 0.992 ± 0.013
fraction of reporter-positive cells with nuclear (HeLa RPS2-YFP reporter): 0.159 ± 0.1
fraction of reporter-positive cells with nuclear (HeLa RPL29-GFP reporter): 0.211 ± 0.07

O=S(=O)(O)CCS [Mesna (Uromitexan, Mesnex)]
fraction [1]: 0.125 ± 0.15
fraction [2]: 0.9988 ± 0.002
fraction of reporter-positive cells with nuclear (HeLa RPS2-YFP reporter): 0.102 ± 0.056
fraction of reporter-positive cells with nuclear (HeLa RPL29-GFP reporter): 0.227 ± 0.07

CC(=O)[C@]1(O)Cc2c(O)c3c(c(O)c2[C@@H](O[C@H]2C[C@H](N)[C@H](O)[C@H](C)O2)C1)C(=O)c1ccccc1C3=O [Idarubicin HCl]
fraction [1]: 0.0807 ± 0.13
fraction [2]: 0.769 ± 0.4
fraction of reporter-positive cells with nuclear (HeLa RPS2-YFP reporter): 0.124 ± 0.074
fraction of reporter-positive cells with nuclear (HeLa RPL29-GFP reporter): 0.627 ± 0.31

CN(C)CCC(c1ccccc1)c1ccccn1 (stereo not given) [Pheniramine Maleate]
fraction [1]: 0.093 ± 0.13
fraction [2]: 0.988 ± 0.021
fraction of reporter-positive cells with nuclear (HeLa RPS2-YFP reporter): 0.112 ± 0.1
fraction of reporter-positive cells with nuclear (HeLa RPL29-GFP reporter): 0.216 ± 0.062

COc1ccc2c(c1)c(CC(=O)O)c(C)n2C(=O)c1ccc(Cl)cc1 [Indomethacin (Indocid, Indocin)]
fraction [1]: 0.0782 ± 0.077
fraction [2]: 0.998 ± 0.0034
fraction of reporter-positive cells with nuclear (HeLa RPS2-YFP reporter): 0.131 ± 0.048
fraction of reporter-positive cells with nuclear (HeLa RPL29-GFP reporter): 0.192 ± 0.063

C[C@@H](NCCCc1cccc(C(F)(F)F)c1)c1cccc2ccccc12 [AMG-073 HCl (Cinacalcet hydrochloride)]
fraction [1]: 0.116 ± 0.12
fraction [2]: 0.9981 ± 0.0032
fraction of reporter-positive cells with nuclear (HeLa RPS2-YFP reporter): 0.107 ± 0.075
fraction of reporter-positive cells with nuclear (HeLa RPL29-GFP reporter): 0.201 ± 0.054

CCOC(=O)[C@H](CCc1ccccc1)N[C@@H](C)C(=O)N1Cc2ccccc2C[C@H]1C(=O)O [Quinapril HCl (Accupril)]
fraction [1]: 0.0496 ± 0.062
fraction [2]: 0.9944 ± 0.0097
fraction of reporter-positive cells with nuclear (HeLa RPS2-YFP reporter): 0.0967 ± 0.097
fraction of reporter-positive cells with nuclear (HeLa RPL29-GFP reporter): 0.26 ± 0.062

CCC(=O)O[C@]1(C(=O)CCl)[C@@H](C)C[C@H]2[C@@H]3CCC4=CC(=O)C=C[C@]4(C)[C@@]3(F)[C@@H](O)C[C@@]21C [Clobetasol propionate]
fraction [1]: 0.0434 ± 0.036
fraction [2]: 0.993 ± 0.012
fraction of reporter-positive cells with nuclear (HeLa RPS2-YFP reporter): 0.0962 ± 0.089
fraction of reporter-positive cells with nuclear (HeLa RPL29-GFP reporter): 0.234 ± 0.0027

CN1CCCC(n2nc(Cc3ccc(Cl)cc3)c3ccccc3c2=O)CC1 (stereo not given) [Azelastine hydrochloride (Astelin)]
fraction [1]: 0.194 ± 0.28
fraction [2]: 0.994 ± 0.011
fraction of reporter-positive cells with nuclear (HeLa RPS2-YFP reporter): 0.134 ± 0.081
fraction of reporter-positive cells with nuclear (HeLa RPL29-GFP reporter): 0.221 ± 0.064

COCCCC/C(=N\OCCN)c1ccc(C(F)(F)F)cc1 [Fluvoxamine maleate]
fraction [1]: 0.0699 ± 0.071
fraction [2]: 0.998 ± 0.0036
fraction of reporter-positive cells with nuclear (HeLa RPS2-YFP reporter): 0.121 ± 0.079
fraction of reporter-positive cells with nuclear (HeLa RPL29-GFP reporter): 0.216 ± 0.06

CCOc1nc2cccc(C(=O)O)c2n1Cc1ccc(-c2ccccc2-c2noc(=O)[nH]2)cc1 [Azilsartan (TAK-536)]
fraction [1]: 0.109 ± 0.14
fraction [2]: 0.984 ± 0.028
fraction of reporter-positive cells with nuclear (HeLa RPS2-YFP reporter): 0.121 ± 0.11
fraction of reporter-positive cells with nuclear (HeLa RPL29-GFP reporter): 0.211 ± 0.055
